This note sets out measurements from the supplement of paper PMC9135407.

The test system of this assay is primary human hepatic stellate cells (donor 1). The experiment in a line: percent Bodipy-positive cells; higher = more lipid droplet accumulation. The settings on record: 48 h.
Where [1] appears, read: library stock concentration: 3.33 mM.
[2] abbreviates: library stock concentration: 10 mM.
Where [3] appears, read: library stock concentration: 1 mM.
Setting [4] is: library stock concentration: 4 mM.
Where [5] appears, read: library stock concentration: 5.1 mM.

“And” between values parts separate entries of the source, which are not always exact repeats. Identical values can stand only once. Counter-ions that a name gives are not always drawn. ± gives the standard deviation of the averaged measurements. The list shows a part of the results. Part of the spread comes from offsets between plates or batches.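 Culture-activated primary human stellate myofibroblasts, where regained lipid droplets signal inactivation. Value: share of Hoechst-counted cells above a per-plate Bodipy cutoff, in duplicate wells, with DMSO negative and nortriptyline positive controls on each plate. Hits: a control-normalized score above the plate's top-tenth-percentile nortriptyline wells, or one of a plate's three best wells. Final well concentrations are not given.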

Turning to `CC(N)C12CC3CC(CC(C3)C1)C2` (configuration not stated) [Rimantadine hydrochloride], the “percent Bodipy-positive cells” value (library stock concentration: 9.3 mM) stood at 52.89 ± 0.49%.
Turning to `CC(N)C12CC3CC(CC(C3)C1)C2` (configuration not stated) [Rimantadine], the “percent Bodipy-positive cells” value by setting is: under setting [1], 13.3 ± 5.9%; under setting [2], 41.6 ± 0.47%.
In the case of `CS(=O)(=O)Nc1ccc([N+](=O)[O-])cc1OC1CCCCC1`, the “percent Bodipy-positive cells” value under setting [3] amounted to 8.08 ± 1.1%.
In the case of `COC(=O)C(N)CS` (configuration not stated) [Mecysteine hydrochloride], the “percent Bodipy-positive cells” value under setting [2] came out at 17.6 ± 8.7%.
For the molecule `COc1cc(Nc2ncc(F)c(Nc3ccc4c(n3)NC(=O)C(C)(C)O4)n2)cc(OC)c1OC` [R406 (free base)], the “percent Bodipy-positive cells” value reads like this: under setting [1], 68.78 ± 0.6%; under setting [2], 90.4 ± 5.2%.
For the molecule `C[C@H]1C[C@@H]2[C@H]([C@@H](O)C[C@@]3(C)[C@H]2CC[C@]3(O)C(=O)COC(=O)CCC(=O)O)[C@@]2(C)C=CC(=O)C=C12` [Methylprednisolone sodium succinate], under setting [4], the “percent Bodipy-positive cells” value was 8.59 ± 1.9%.
As for `CCC(=O)NC[C@H](Cc1ccc(OCCc2nc(-c3ccccc3)oc2C)cc1)N/C(C)=C\C(=O)c1ccc(C(F)(F)F)cc1`, the “percent Bodipy-positive cells” value under setting [2] was determined as 5.52 ± 3.7%.
Take `Fc1cc(-c2cccc3ncc(-c4cnn(C5CCNCC5)c4)nc23)cc(F)c1CN1CCOCC1`: the “percent Bodipy-positive cells” value reads like this: under setting [1], 99.6 ± 0.57%; under setting [2], 99.2 ± 1.2%.
In the case of `C[n+]1cc2c3c(ccc2c2ccc4cc5c(cc4c21)OCO5)OCO3` [Sanguinarine], the “percent Bodipy-positive cells” value was determined as 100%.
As to `Nc1cc(-c2ccncc2)c[nH]c1=O` [Amrinone], the “percent Bodipy-positive cells” value was 10.7 ± 2%.
`Nc1cc(-c2ccncc2)c[nH]c1=O`: the “percent Bodipy-positive cells” value under setting [2] is 46 ± 15%.
For `CCOC(=O)c1c(C)n(C)c2ccc(O)cc12` [Mecarbinate], the “percent Bodipy-positive cells” value by setting is: under setting [1], 17.9 ± 13%; under setting [2], 25.6 ± 5.8%.
`COC(=O)/C=C/C(=O)N(O)CCCCNCc1ccc(COC(=O)Nc2cccc3ccccc23)cc1` [Methylstat]: the “percent Bodipy-positive cells” value runs as follows: (library stock concentration: 80 uM) 35.7 ± 5.9%; (library stock concentration: 400 uM) 40 ± 1.8%; (library stock concentration: 2 mM) 61.4 ± 11%; under setting [2], 99 ± 1.5%.
`COc1ccc(C[C@@H]2c3cc(OC)c(OC)cc3CC[N@+]2(C)CCC(=O)OCCCCCOC(=O)CC[N@@+]2(C)CCc3cc(OC)c(OC)cc3[C@H]2Cc2ccc(OC)c(OC)c2)cc1OC` [Cisatracurium Besylate]: the “percent Bodipy-positive cells” value amounted to 12.4 ± 9.7% under setting [1] and 20.7 ± 1.2% under setting [2].
For `c1ccc2c(c1)CCCc1cc(NCCN3CCOCC3)nnc1-2`, the “percent Bodipy-positive cells” value worked out at 21.5 ± 0.24%.
Turning to `COC(=O)CCCCCCC1C(O)CC(O)C1CCC(O)CSc1ccccc1F` (configuration not stated), the “percent Bodipy-positive cells” value under setting [3] was determined as 8.09 ± 8.1%.
Regarding `CN(CCOc1ccc(CC2SC(=O)NC2=O)cc1)c1ccccn1` (configuration not stated) [Rosiglitazone (potassium salt)], under setting [3], the “percent Bodipy-positive cells” value stood at 5.71 ± 0.29%.
Regarding `CN(CCOc1ccc(CC2SC(=O)NC2=O)cc1)c1ccccn1` (configuration not stated), the “percent Bodipy-positive cells” value under setting [2] was 14.3% and 6.07%.
On to `CN(CCOc1ccc(CC2SC(=O)NC2=O)cc1)c1ccccn1` (configuration not stated) [Rosiglitazone], for which the “percent Bodipy-positive cells” value runs as follows: under setting [3], 5.37 ± 0.15%; under setting [1], 5.44 ± 0.57%.
Regarding `CCC(=O)OCC(=O)[C@@]1(OC(=O)CC)[C@H](C)C[C@H]2[C@H]3[C@H]([C@@H](O)C[C@@]21C)[C@@]1(C)C=CC(=O)C=C1C[C@H]3Cl` [Alclometasone dipropionate], the “percent Bodipy-positive cells” value amounted to 7.87 ± 0.71%.
`c1ccc2nc(C3=NCCN3)cnc2c1` [BU 239 hydrochloride]: under setting [2], the “percent Bodipy-positive cells” value is 6.87 ± 0.21%.
As to `CN(C)CC[C@@H](c1ccc(Cl)cc1)c1ccccn1`, the “percent Bodipy-positive cells” value under setting [2] is 38.5 ± 1.1%.
With `CN(C)CC[C@@H](c1ccc(Cl)cc1)c1ccccn1` [Dexchlorpheniramine maleate], under setting [5], the “percent Bodipy-positive cells” value worked out at 21.1 ± 5.6%.
As to `CN(C)CC[C@@H](c1ccc(Cl)cc1)c1ccccn1` [Chlorpheniramine (s) maleate], the “percent Bodipy-positive cells” value reads like this: under setting [5], 14 ± 0.18%; under setting [2], 25.9 ± 5.3%.
As to `CCCCC[C@H](O)/C=C/[C@H]1[C@H](O)CC(=O)[C@@H]1C/C=C/CCCC(=O)O` [5-trans Prostaglandin E2], under setting [3], the “percent Bodipy-positive cells” value worked out at 19.5 ± 3.2%.
With `Cn1c([N+](=O)[O-])cnc1COC(N)=O` [Ronidazole], the “percent Bodipy-positive cells” value is 9.966 ± 0.096%. Further, under setting [1], the “percent Bodipy-positive cells” value amounted to 8.61 ± 2.2%. Besides, the “percent Bodipy-positive cells” value under setting [2] was 26.8% and 30.9%.
Consider `COC(=O)c1ccc(O)c2nc3c(C=O)c(O)cc(O)c3nc12` [Lomofungin], for which the “percent Bodipy-positive cells” value (library stock concentration: 6.4 mM) was 15.1 ± 6.1%.
As for `CCN(c1cc(-c2ccc(CN3CCOCC3)cc2)cc(C(=O)NCc2c(C)cc(C)[nH]c2=O)c1C)C1CCOCC1`, the “percent Bodipy-positive cells” value under setting [1] is 40.1 ± 4.3% and the “percent Bodipy-positive cells” value under setting [2] worked out at 47.9 ± 4.1%.
On to `NC(N)=O`, for which the “percent Bodipy-positive cells” value worked out at 23.7 ± 6.4% under setting [2] and 17.1 ± 7.8% (library stock concentration: 33.3 mM).
Turning to `CCCCC[C@H]1C=C[C@@H]2[C@@H](CC=CCCCC(=O)O1)[C@@H](O)C[C@H]2O` [Prostaglandin F2.alpha. 1,15-lactone], the “percent Bodipy-positive cells” value under setting [3] was 13.7 ± 6.3%.
Take `O=C1c2ccccc2S(=O)(=O)N1CCCCN1CCN(c2ncccn2)CC1` [Ipsapirone]: under setting [2], the “percent Bodipy-positive cells” value is 8.67 ± 0.33%.
The same measure, in the same setting: as for `O=C(O)/C(=C\c1c(C(=O)O)[nH]c2cc(Cl)cc(Cl)c12)c1ccccc1`, the figure is 28.2 ± 1.9%; as for `CN(C)[C@@H]1C(O)=C(C(N)=O)C(=O)[C@@]2(O)C(O)=C3C(=O)c4c(O)ccc(Cl)c4[C@@H](O)[C@H]3C[C@@H]12` [Demeclocycline], 27.9 ± 2.5%.
As to `CN(C)[C@@H]1C(O)=C(C(N)=O)C(=O)[C@@]2(O)C(O)=C3C(=O)c4c(O)ccc(Cl)c4[C@@H](O)[C@H]3C[C@@H]12` [Demeclocycline hydrochloride], the “percent Bodipy-positive cells” value stood at 6.96 ± 0.56%. Further, the “percent Bodipy-positive cells” value under setting [4] stood at 2.23 ± 1.1%. Moreover, under setting [2], the “percent Bodipy-positive cells” value is 9.6 ± 2.4%.
Take `O=C(O)CC1CC(c2ccccc2)=NO1` (configuration not stated): the “percent Bodipy-positive cells” value turned out to be 32.5 ± 2.6% under setting [1] and 34.6 ± 10% under setting [2].
